## Library screen at single concentrations

By UniProt entry, the sequences of proteins in these tests, tags left out.
UniProt P9WPC5, whole entry: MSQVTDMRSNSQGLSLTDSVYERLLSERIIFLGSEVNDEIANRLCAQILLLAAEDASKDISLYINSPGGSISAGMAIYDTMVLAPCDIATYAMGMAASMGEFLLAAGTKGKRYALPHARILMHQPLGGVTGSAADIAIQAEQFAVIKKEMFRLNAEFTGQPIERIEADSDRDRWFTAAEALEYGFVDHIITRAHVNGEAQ
UniProt P9WPC3, whole entry partner: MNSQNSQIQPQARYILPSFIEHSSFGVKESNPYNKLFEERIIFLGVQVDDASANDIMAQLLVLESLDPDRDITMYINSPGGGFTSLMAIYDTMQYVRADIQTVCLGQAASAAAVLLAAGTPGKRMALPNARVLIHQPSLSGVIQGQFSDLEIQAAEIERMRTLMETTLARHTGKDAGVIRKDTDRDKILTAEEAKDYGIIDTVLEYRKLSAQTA
UniProt I6X8D2, whole entry: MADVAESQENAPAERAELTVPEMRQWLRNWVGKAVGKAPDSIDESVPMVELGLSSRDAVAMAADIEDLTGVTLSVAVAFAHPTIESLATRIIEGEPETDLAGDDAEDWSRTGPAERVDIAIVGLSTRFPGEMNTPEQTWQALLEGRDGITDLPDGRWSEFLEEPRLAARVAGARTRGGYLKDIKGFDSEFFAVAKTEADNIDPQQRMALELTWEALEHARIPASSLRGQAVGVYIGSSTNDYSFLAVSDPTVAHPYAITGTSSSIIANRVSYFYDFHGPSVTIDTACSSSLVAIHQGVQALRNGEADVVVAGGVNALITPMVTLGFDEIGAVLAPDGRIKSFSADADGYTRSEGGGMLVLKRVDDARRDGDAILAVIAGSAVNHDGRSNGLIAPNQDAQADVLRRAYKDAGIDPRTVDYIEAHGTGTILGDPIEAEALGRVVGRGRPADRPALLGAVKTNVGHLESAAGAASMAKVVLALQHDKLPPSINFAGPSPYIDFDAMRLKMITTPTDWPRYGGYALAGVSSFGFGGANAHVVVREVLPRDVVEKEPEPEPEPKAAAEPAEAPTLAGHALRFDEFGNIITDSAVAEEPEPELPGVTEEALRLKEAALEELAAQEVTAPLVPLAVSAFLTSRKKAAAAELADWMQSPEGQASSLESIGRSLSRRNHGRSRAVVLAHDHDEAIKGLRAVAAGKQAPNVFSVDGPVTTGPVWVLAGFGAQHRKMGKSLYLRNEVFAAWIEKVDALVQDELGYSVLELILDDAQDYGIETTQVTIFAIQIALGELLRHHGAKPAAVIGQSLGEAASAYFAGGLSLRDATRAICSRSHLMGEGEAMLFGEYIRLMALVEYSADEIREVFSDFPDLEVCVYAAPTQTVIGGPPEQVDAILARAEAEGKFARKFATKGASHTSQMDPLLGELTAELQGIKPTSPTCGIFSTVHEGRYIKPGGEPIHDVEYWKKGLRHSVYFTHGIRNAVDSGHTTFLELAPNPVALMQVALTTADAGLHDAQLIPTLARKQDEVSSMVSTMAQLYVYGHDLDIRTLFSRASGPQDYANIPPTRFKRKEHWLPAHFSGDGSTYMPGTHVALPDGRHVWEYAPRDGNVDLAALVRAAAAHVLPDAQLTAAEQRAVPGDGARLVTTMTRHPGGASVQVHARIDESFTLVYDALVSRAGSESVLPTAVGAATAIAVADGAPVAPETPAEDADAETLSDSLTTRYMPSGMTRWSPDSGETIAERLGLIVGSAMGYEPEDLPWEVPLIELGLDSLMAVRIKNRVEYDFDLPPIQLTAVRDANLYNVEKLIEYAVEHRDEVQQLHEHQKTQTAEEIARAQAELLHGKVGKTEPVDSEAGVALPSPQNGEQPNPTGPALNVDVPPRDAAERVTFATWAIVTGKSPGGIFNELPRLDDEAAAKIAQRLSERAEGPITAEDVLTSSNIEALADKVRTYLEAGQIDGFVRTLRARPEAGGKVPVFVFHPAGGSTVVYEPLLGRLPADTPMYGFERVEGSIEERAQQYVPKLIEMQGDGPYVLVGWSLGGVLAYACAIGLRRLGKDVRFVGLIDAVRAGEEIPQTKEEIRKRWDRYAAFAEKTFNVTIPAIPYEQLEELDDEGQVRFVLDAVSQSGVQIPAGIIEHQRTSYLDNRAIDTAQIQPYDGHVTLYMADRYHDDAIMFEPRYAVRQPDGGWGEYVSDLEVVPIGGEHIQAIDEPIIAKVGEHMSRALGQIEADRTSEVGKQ

The filed quantity is “Percent Effect” (%). The record does not define 0% and 100%; most values in the screen are far below 50% and negative numbers occur (in some assays of this library far below -100). This is an unselected part of the compounds tested. A dash means the value is not listed here; it may have been measured.

ClpP1P2: 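ClpP1P2, Mycobacterium tuberculosis (UniProt P9WPC5 and UniProt P9WPC3). Protease assay of ClpP1P2, read by the AMC dye that it sets free. Tested at 50 µM. Higher reads as stronger inhibition, judged from the few compounds that gave an IC50. Most other retested compounds had strongly negative values. About 69,000 compounds were tested under these conditions; 0.015% (about 10) showed 50% or more at least once.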
Pks13 thioesterase: 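Polyketide synthase Pks13, Mycobacterium tuberculosis (UniProt I6X8D2). Enzyme assay of the thioesterase domain of polyketide synthase 13; the read-out is not stated. Concentration: 30 µM. The record gives no direction; the compounds picked for IC50 retests had high values, so higher reads as stronger inhibition. Size under these conditions: about 67,000 compounds, about 300 of them at 50% or above in at least one test.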

| compound | ClpP1P2 | Pks13 thioesterase |
|---|---|---|
| `CN(C)C1CCCN(C(=O)c2cccc(-c3ncc[nH]3)c2)CC1` (centres undefined) | 0.08859% | -12.15% |
| `CSc1ccc(NCc2csc(C)n2)cc1F` | -4.948% | -13.45% |
| `O=C(CCc1ccc(F)c(F)c1)N1CCCCC1Cn1cccn1` (centres undefined) | -41.09% | -11.77% |
| `COc1ccc(C)cc1CN(C)CCCNS(C)(=O)=O` | -1.88% | -7.212% |
| `CC(NC(=O)NCCNc1ncccn1)c1cccs1` (centres undefined) | 10.84% | -14.82% |
| `Cc1c(CS(C)(=O)=O)cccc1NCC1CCCCC1` | -6.501% | 22.34% |
| `CNC(=O)c1sccc1S(=O)(=O)NC` | -2.037% | -23.17% |
| `O=C(CCn1ncc2c(Cl)cccc21)NCC1CC1` | -6.747% | -7.006% |
| `O=C(Nc1ccc(S(=O)(=O)Nc2c(F)cccc2F)cc1)N1CCCC1` | 1.886% | -19.55% |
| `Cc1cc(C2CCCN2C(=O)CN2C(=O)OC(C)(C)C2=O)on1` (centres undefined) | 5.864% | 1.137% |
| `CC(C)(C)CC(NC(=O)N1CCS(=O)(=O)CC1)C(F)(F)F` (centres undefined) | 3.171% | -14.52% |
| `COc1cccc(CNC2CCCOc3cc(C)ccc32)n1` (centres undefined) | -12.28% | -9.131% |
| `CCCc1ncc(C(=O)N2CCOc3ncccc32)s1` | -3.248% | -6.727% |
| `Cc1ncnc(N2CCCN(c3nc4ccccc4s3)CC2)c1C` | -4.635% | -46.79% |
| `Cc1cc(CNC(=O)C2CCN(CC(N)=O)CC2)cc(C)n1` | 1.95% | -19.11% |
| `O=S(=O)(Nc1cnn(C2CCOCC2)c1)c1ccc(Br)cc1` | 0.6332% | 1.709% |
| `Cc1ccc(-c2noc([C@@H]3Cc4nc[nH]c4CN3)n2)cc1` | -7.164% | -41.07% |
| `O=C(c1cnccn1)N1CCN2C[C@H](OCC3CC3)C[C@H]2C1` | 5.717% | -10.41% |
| `O=C(CCc1ccccc1)N1CC(n2cncn2)C1` | -10.11% | 8.045% |
| `O=C(Nc1ccc(CCN2CCC(O)CC2)cc1)Nc1cccnc1` | -6.759% | -8.014% |
| `CCN1CCCC1CNC(=O)c1cc(COc2ccccc2F)[nH]n1` (centres undefined) | 0.4729% | -24.74% |
| `O=C(N[C@]12CC1CN(C(=O)c1ccco1)C2)c1cccc(F)c1` (some centres undefined) | 2.309% | -41.2% |
| `CC(=O)NCc1ccc(C(=O)N2CCCC2c2cnn(C)c2)o1` (centres undefined) | 0.8021% | -18.68% |
| `COCC(=O)N1CCCCC1c1nc(N(C)C)ncc1-c1cc(C)no1` (centres undefined) | 12.1% | -6.803% |
| `CCN(CCCNC(=O)c1ccc(C)[nH]c1=O)S(C)(=O)=O` | 5.17% | -9.364% |
| `O=C(CC1=CCCCC1)N1CCC(Cn2cc(CCO)nn2)CC1` | -15.2% | -10.03% |
| `CC(c1ccncc1)N(C)C(=O)NCCOc1ccc(C#N)cc1` (centres undefined) | -6.549% | 17.89% |
| `Cn1cnc2c1CCN(CCCOc1ccc(S(C)(=O)=O)cc1)C2` | 4.404% | -18.73% |
| `Cc1ccccc1SCC(=O)NC1CCC(O)CC1` (centres undefined) | -2.187% | -19.1% |
| `CS(=O)(=O)CCn1ccc(NC(=O)Cc2ccccc2F)n1` | -1.067% | -7.059% |
| `Fc1ccc(C2CCCCN2Cc2cc(-c3ccccn3)no2)cc1` (centres undefined) | -20.55% | -4.306% |
| `Cc1cccc(NC(=O)[C@@H]2CCCN2Cc2cnc3ccccn23)n1` | -10.41% | -9.178% |
| `Cc1ccc(CNC(=O)CN2CCN(CC(O)C3CC3)CC2)cc1` (centres undefined) | -13.26% | -5.559% |
| `Cc1cn2c(n1)CCC(NC(=O)Cn1cncn1)C2` (centres undefined) | -24.42% | -3% |
| `O=C1[C@@H]2CCN(C3CCOCC3)C[C@@H]2OCCN1Cc1cccnc1` | -4.295% | -7.595% |
| `CN(CCCN1CCCC1)[C@@H]1c2ccccc2C2(CCNCC2)[C@H]1O` | -14.25% | 7.749% |
| `COCCN1CC[C@]2(CN(Cc3ccccn3)C[C@H]2C)C1=O` | -7.016% | 15.51% |
| `CN(C)CCN1CC2(CCN(C(=O)c3cnccn3)CC2)OC1=O` | -5.879% | -11.66% |
| `NC(=O)C1(c2cnccn2)CCCN1C(=O)Cc1ccsc1` (centres undefined) | -5.035% | 2.388% |
| `CCc1cc(N2CCC(NC(=O)CCC3CCCO3)CC2)ncn1` (centres undefined) | -9.269% | -19.72% |
| `CN(C)Cc1nc(C(C)(C)NC(=O)C2CC(=O)N(CC3CC3)C2)no1` (centres undefined) | -1.971% | -13.17% |
| `COc1ccccc1CC1CCCN(CCC#N)C1` (centres undefined) | 6.819% | -20.9% |
| `COc1ncccc1C(=O)N1CCC(c2nnc(C3CC3)o2)CC1` | -10.1% | -8.269% |
| `CC(c1nc(C(C)(C)C)no1)N1CCN(Cc2ccco2)CC1` (centres undefined) | -5.911% | -8.962% |
| `COc1cc(N(C)Cc2cccc(-n3cccn3)c2)nc(N)n1` | 1.337% | -64.12% |
| `CN1CCN(C2CCN(CCOc3cccc(Cl)c3)CC2)C1=O` | -9.494% | -13.46% |
| `Cc1ncc(-c2ccnc(N3CCC[C@@H]3CO)n2)c(-c2cccnc2)n1` | -5.137% | 5.841% |
| `COc1cc(C)nc(N2CCN(C(C)c3nc(C4CC4)no3)CC2)n1` (centres undefined) | 3.353% | -18.63% |
| `O=C(c1ccc2c(c1)OCO2)N1CCC(Nc2cccnn2)CC1` | -15.08% | -33.06% |
| `CCOc1ccc2[nH]c(=O)c(CN3CCCC3c3ccccn3)cc2c1` (centres undefined) | -45.4% | -32.93% |
| `COC(=O)c1cccc(-c2nc(CC3CCN(C)CC3)no2)c1` | -2.544% | -29.91% |
| `O=C1CSC(c2ccsc2)c2c(n(C3CCCC3)[nH]c2=O)N1` (centres undefined) | -18.46% | -9.437% |
| `CCOC[C@@]12CCC[C@@H]1CN(C(=O)COc1ccccc1OC)C2` | -8.382% | -6.808% |
| `CC(C)(C)c1nc(CN(Cc2ccccc2Cl)C2CCCC2)no1` | -1.053% | -15.67% |
| `CN(Cc1ccoc1)c1ccc(-c2nccn2C)nn1` | 13.83% | 19.22% |
| `Cc1cc(CN2CCO[C@H]3[C@H](OCc4csc(C)n4)CC[C@@H]32)no1` | -0.06271% | - |
| `COc1c(C2CCCN2C(=O)Cc2c(C)noc2C)c(C)nn1C` (centres undefined) | 2.696% | -35.92% |
| `CN1CC2(CCN(c3nc(N)nc4c3CCNC4)CC2)OC1=O` | -9.956% | -30.14% |
| `Cc1nc(CO[C@@H]2CN(Cc3ccco3)[C@@H]3COC[C@@H]32)cs1` | -12.18% | -17.31% |
| `COc1c(C2CCCN2Cc2cn3ccsc3n2)c(C)nn1C` (centres undefined) | 12.19% | -13.21% |
| `CCCc1ncc(C(=O)N2CCOC(c3nc(C)n[nH]3)C2)s1` (centres undefined) | -3.993% | -8.784% |
| `Cc1ccc(CCCC(=O)N(C)CCN2CCOCC2)cc1` | -18.45% | -7.673% |

Some entries from above, unchanged:

| compound | ClpP1P2 | Pks13 thioesterase |
|---|---|---|
| `Cc1cc(CN2CCO[C@H]3[C@H](OCc4csc(C)n4)CC[C@@H]32)no1` | -0.06271% | - |
| `CCN(CCCNC(=O)c1ccc(C)[nH]c1=O)S(C)(=O)=O` | 5.17% | -9.364% |
| `CC(=O)NCc1ccc(C(=O)N2CCCC2c2cnn(C)c2)o1` (centres undefined) | 0.8021% | -18.68% |
| `O=C(Nc1ccc(CCN2CCC(O)CC2)cc1)Nc1cccnc1` | -6.759% | -8.014% |
| `Cn1cnc2c1CCN(CCCOc1ccc(S(C)(=O)=O)cc1)C2` | 4.404% | -18.73% |
| `Fc1ccc(C2CCCCN2Cc2cc(-c3ccccn3)no2)cc1` (centres undefined) | -20.55% | -4.306% |
| `COCC(=O)N1CCCCC1c1nc(N(C)C)ncc1-c1cc(C)no1` (centres undefined) | 12.1% | -6.803% |

The values are deposited in ChEMBL (CHEMBL3988442, “University of Dundee, Small-Polar-MMV Screening Library” (2021)).